PubChem BioAssay AID1259286 – Sanger Institute, 2017
The deposit covers 794 reagents; shown is an unselected part. 17 of all reagents (2.1%) count as active. 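Calls use knock-down alone only; synergy above 0.15 marked separately; viability seems capped at control level; exposure time not given.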 Unmarked entries are inactive. Further read-outs or replicates are left out here. No sequences are given here. Not given: the amount of reagent, the time to read-out.

Assay: 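Kinase knock-downs that reduce colorectal cancer cell viability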 (primary screen)
Cell system: NCI-H630 human colorectal cancer cells
Reagent: siRNA pool against human genes
Treatment: anchor drugs BYL719 at 1 µM, cetuximab at 5 µg/ml or trametinib at 10 nM, or DMSO vehicle alone; exposure time not given
Measured: 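Replicate-averaged viability as a fraction of non-targeting control, knock-down-alone robust z-score, and per-drug synergy scores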
Reading the numbers: viability z-score, knock-down alone: higher = more viable cells, weaker knock-down effect; viability vs control, knock-down alone: higher = more viable cells; synergy score with trametinib: higher = stronger synergistic killing with trametinib; synergy score with BYL719: higher = stronger synergistic killing with BYL719
Hit rule: 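Essential call: robust z-score of viability with siRNA alone lower than -3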
Meaning of the calls: active = essential when knocked down alone; inactive = not essential alone

gene symbol,"viability z-score, knock-down alone","viability vs control, knock-down alone (fraction of control)",synergy score with trametinib,synergy score with BYL719
BRAF,-1.38,0.93,0.000917,0.00432
PI4K2B,0.216,0.991,-0.00286,-0.09
TCF12,0.464,1,-0.0479,-0.0814
PIM2,0.464,1,-0.0479,0.0286
TGFBR2,0.464,1,-0.0479,-0.0814
CDKL2,-0.0954,0.979,-0.0268,0.0258
CHEK1,-2.59,0.884,0.0353,0.109
MAP4K2,0.464,1,-0.0479,0.086
PDIK1L,0.464,1,-0.00904,-0.0814
PAK2,0.464,1,-0.0479,0.0531
FLT4,0.464,1,-0.0479,-0.073
GK,0.464,1,0.01,-0.0814
MAP3K4,0.404,0.998,-0.05,-0.0511
IRAK3,-0.0163,0.982,-0.0652,0.0372
NEK9,0.464,1,-0.0479,-0.0814
CDK2,-0.293,0.971,-0.0751,-0.0861
GALK1,0.464,1,-0.0317,0.01
ERN1,0.464,1,-0.0408,-0.0388
HK3,0.464,1,-0.0479,0.0335
MKNK2,0.464,1,-0.0479,-0.0814
CDC73,-2.65,0.882,-0.00893,-0.19
PFKL,-0.326,0.97,-0.024,-0.109
GUCY2F,0.464,1,-0.0479,-0.0659
NIM1K,-0.392,0.968,-0.0787,-0.111
STK33,0.464,1,-0.0266,-0.0814
CALM3,-1.48,0.927,0.0135,-0.149
ALPK2,0.464,1,-0.0373,-0.0523
RPS6KA4,0.464,1,-0.0479,-0.0814
MPP3,0.351,0.996,-0.0509,-0.0343
STK26,-0.694,0.956,-0.0896,-0.0929
EFNA5,0.464,1,-0.0133,-0.0814
ABL1,0.464,1,0.0257,-0.00211
PTPRU,0.314,0.994,-0.0533,0.0519
STK17B,-5.74 (active),0.765,-0.271,-0.297
TPD52L3,0.464,1,-0.0479,-0.0814
STK39,-0.782,0.953,-0.0686,-0.0561
AURKA,-3.34 (active),0.856,-0.0515,-0.00871
DGKG,-1.49,0.926,-0.118,-0.0794
MKNK1,-1.25,0.935,-0.105,-0.0236
IRAK2,-0.932,0.947,-0.0981,-0.13
EPHA5,0.464,1,-0.0479,-0.0814
PKLR,0.464,1,-0.0479,-0.0814
MAPK13,0.464,1,-0.0479,0.00256
CDK3,0.464,1,-0.0479,-0.0268
MAP2K6,0.464,1,-0.00479,0.00659
CIB2,-2.34,0.894,-0.0201,-0.00576
DAPK2,0.464,1,-0.0344,0.00866
GATA3,0.464,1,-0.0351,-0.0814
BUB1B,-1.49,0.926,0.0699,0.0662
KSR1,-2.73,0.879,-0.163,-0.152
TAOK2,0.464,1,-0.0479,-0.0753
CDKL5,0.464,1,-0.0479,-0.0697
BPTF,0.207,0.99,0.00584,-0.0624
VRK2,-1.8,0.914,-0.129,-0.135
KCNH8,0.159,0.988,-0.00163,0.0289
AXIN2,0.183,0.989,-0.0206,0.000924
PAK6,0.464,1,-0.0479,-0.0814
ACVR1,-0.139,0.977,-0.0263,-0.102
BLK,0.107,0.987,-0.0607,-0.0938
AKT1,0.464,1,-0.0426,-0.0814
RELA,0.199,0.99,-0.0574,-0.0299
EPHB2,0.464,1,0.0128,0.00347
ITK,-2.07,0.904,-0.139,-0.169
